In paper PMC4802085:
No constants are given. Whether binding was seen depends on the method and setting. Binding seen in cells or lysates may run through a third protein. For part of these data: Binding calls can cover weak binding; strength is not graded here.

The chains behind the UniProt entries cited, without tags or fusion partners. Where a name states a change or a piece, a line headed by the entry shows the natural chain unless it says otherwise. A line that says so, or that is headed by a name, gives the form on record, which may keep a tag or linker. Residues count along the entry.
FLAG-PGRMC1 wild-type (a.a.44–195) (O00264, residues 44-195): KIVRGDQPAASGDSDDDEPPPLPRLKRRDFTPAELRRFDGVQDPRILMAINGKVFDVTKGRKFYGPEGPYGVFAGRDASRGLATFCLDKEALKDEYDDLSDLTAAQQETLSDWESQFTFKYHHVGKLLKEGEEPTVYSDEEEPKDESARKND
FLAG-PGRMC1 Y113F mutant (a.a.44–195) (O00264, form named): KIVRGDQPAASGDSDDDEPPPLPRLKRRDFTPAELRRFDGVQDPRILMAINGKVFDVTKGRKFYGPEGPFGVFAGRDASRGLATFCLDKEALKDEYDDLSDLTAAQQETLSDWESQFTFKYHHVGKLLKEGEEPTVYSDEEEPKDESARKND
UniProt P08684: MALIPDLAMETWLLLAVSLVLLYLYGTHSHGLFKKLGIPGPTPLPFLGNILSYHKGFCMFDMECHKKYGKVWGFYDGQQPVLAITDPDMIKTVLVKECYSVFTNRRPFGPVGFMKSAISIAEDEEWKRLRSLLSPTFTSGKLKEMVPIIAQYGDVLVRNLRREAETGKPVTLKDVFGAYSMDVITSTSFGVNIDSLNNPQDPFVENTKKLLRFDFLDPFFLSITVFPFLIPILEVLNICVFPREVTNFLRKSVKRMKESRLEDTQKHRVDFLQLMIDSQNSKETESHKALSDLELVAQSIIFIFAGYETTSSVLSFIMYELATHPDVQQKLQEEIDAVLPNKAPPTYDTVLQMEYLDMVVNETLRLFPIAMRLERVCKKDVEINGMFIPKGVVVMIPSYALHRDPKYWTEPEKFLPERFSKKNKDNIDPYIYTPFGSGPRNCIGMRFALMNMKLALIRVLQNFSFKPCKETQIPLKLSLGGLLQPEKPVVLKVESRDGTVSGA

What was measured:
[1] = target: FLAG-PGRMC1 wild-type (a.a.44–195) (human) (UniProt O00264); test: co-IP; in vitro binding assay as a18 with FLAG-PGRMC1 in apo form (no haemin); only the target purified
[2] = target: FLAG-PGRMC1 Y113F mutant (a.a.44–195) (human) (UniProt O00264); test: co-IP; in vitro binding assay: 1 μg CYP1A2 or CYP3A4 (microsomal formulation containing cytochrome b5 and cytochrome P450 reductase) with 10 μg FLAG-PGRMC1 (a.a.44–195) treated with 50 μmol l^−1 haemin, anti-FLAG (M2) agarose; 20 mmol l^−1 HEPES-NaOH (pH 7.9), 100 mmol l^−1 NaCl, 0.2 mmol l^−1 EDTA, 10% glycerol, 0.1% NP40, room temperature; only the target purified
[3] = target: FLAG-PGRMC1 wild-type (a.a.44–195) (human) (UniProt O00264); test: as above

“Recombinant CYP3A4 (from UniProt P08684) (enzyme)” was tested, and the binding [1] was “no binding (only without haem (apo form))”, the binding [2] was “no binding” and the binding [3] was “binds”.
